Data from publication PMC6398391 (The FEBS journal, 2018).
No constants are given. Whether binding was seen depends on the method and setting.

Molecular target: INI1/hSNF5 RPT1 (residues 184-258) (human) (UniProt Q12824)
Experiment: SEC-MALS + other: NMR; INI1 RPT1 alone; both purified

- binding: no binding
B1: INI1/hSNF5 RPT1 (residues 184-258) (domain or fragment, human, UniProt Q12824 184-258, looked up)
chain: EVLVPIRLDMEIDGQKLRDAFTWNMNEKLMTPEMFSEILCDDLDLNPLTFVPAIASAIRQQIESYPTDSILEDQS
